Source: paper PMC3416868, “The Fission Yeast GATA Factor, Gaf1, Modulates Sexual Development via Direct Down-Regulation of ste11+ Expression in Response to Nitrogen Starvation”

What was measured:
GST-Gaf1 [1] = biological target: T1, GST-Gaf1 (UniProt Q10280); experiment: competition with a labelled probe; settings: cold PA, 50- and 100-fold, against labeled PA; 10 mM Tris pH 7.5, 2 mM MgCl2, 50 mM NaCl, 1 mM DTT, 5% glycerol, 2 ug poly(dI-dC) in 20 ul, room temperature, 20 min; 6% native PAGE; recombinant protein; residues 1-855; protein details: N-terminal GST (pGEX4T3); label: 32P 5'-end; probe letters rebuilt from the primers and the genome
T1 sequence (looked up): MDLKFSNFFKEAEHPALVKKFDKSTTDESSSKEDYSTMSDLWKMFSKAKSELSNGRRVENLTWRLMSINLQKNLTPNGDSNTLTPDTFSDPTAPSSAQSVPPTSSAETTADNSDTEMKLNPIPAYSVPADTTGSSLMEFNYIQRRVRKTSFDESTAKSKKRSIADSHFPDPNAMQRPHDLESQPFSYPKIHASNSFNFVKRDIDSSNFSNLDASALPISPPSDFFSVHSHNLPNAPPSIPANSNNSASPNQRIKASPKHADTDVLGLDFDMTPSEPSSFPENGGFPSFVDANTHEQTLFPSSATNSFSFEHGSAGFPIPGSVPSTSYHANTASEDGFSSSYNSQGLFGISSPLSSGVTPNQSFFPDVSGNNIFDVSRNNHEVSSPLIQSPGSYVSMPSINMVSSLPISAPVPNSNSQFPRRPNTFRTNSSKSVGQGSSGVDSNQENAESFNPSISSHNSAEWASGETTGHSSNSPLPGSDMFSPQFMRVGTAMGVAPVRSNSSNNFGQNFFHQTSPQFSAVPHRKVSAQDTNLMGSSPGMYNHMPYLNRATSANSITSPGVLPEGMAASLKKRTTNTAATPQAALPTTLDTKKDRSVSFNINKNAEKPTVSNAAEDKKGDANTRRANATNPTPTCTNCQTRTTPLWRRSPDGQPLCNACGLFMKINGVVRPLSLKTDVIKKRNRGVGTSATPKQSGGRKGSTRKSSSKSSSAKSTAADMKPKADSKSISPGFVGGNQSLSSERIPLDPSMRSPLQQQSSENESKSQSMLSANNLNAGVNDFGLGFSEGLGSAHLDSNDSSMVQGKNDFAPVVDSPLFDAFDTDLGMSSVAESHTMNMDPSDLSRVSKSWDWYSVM

GST-Gaf1 [2] = biological target: T1, GST-Gaf1; experiment: EMSA; settings: 10 mM Tris pH 7.5, 2 mM MgCl2, 50 mM NaCl, 1 mM DTT, 5% glycerol, 2 ug poly(dI-dC) in 20 ul, room temperature, 20 min; 6% native PAGE; recombinant protein; residues 1-855; protein details: N-terminal GST (pGEX4T3); label: 32P 5'-end; probe letters rebuilt from the primers and the genome

Sequence: ACATATGATGCGAAAGCATTTGTCACTTTTACTTGCCTACAAACGATGTAACACAGCAAACAAAGTCAGGGATTCCCCCCTGTACAAAAGATTAGTGTGGCACTTGGCAAAAAGTCTCGCAAAGCTACTTTTCGTTGAGGGAGATAGCGCAAGGCAAAATGACAAGAAGCCAACGACTAGTCTTCCAATGAATGAGGAATTGTAGAACGCTGGGGAAGTTGGAGAGTTAAGGAGGGGTGGAGAAAGCAAAATAGAGTAAGCGGGCATTTGAAGAGCGGCAATTTGCGAAACCGCAGGGTATTATAGGTAAGGTTTAAGCAAATGTTAAAAGAATAAAAAAGCATAGCGAATGTGTGAAAACAAGTGCCGGCAGTTTGAGTAGTAAGCAAGTGATGAGGAAGTAGTTTGGGGTGAACGGAACGGGAGTGAAATAAGAATGGCGAAGACTTGGAGTCATGATGAAAAATACAGGTACTACGAGCGGAAGGAAAGAAACCACACACATACAATGATTCTATCGAGTCATTGCCATTGGAATTTTGCTACAATTTACCGAAAATTAGGCGTGGGTGCTTGTGTTTCCCTTCCATCATCCCTGGAGATGGCATGC (double strand) [PA]
- binding result (GST-Gaf1 [1]): binds
- binding result (GST-Gaf1 [2]): binds

Protein sequences can lack the tags named with them.
